Values quoted from earlier work, collected in patent US20150164065A1, “ORGAN ARREST, PROTECTION, PRESERVATION AND RECOVERY” (priority 2002, published 2015).
At least one compound was matched to its structure with a doubt left.

System: isolated brain slices

In the case of `O=C1O[C@H]([C@@H](O)CO)C(O)=C1O` [ascorbate], the ischemia-induced cell swelling is given as “reduction of cell swelling”.
